Reference: PubChem BioAssay AID588590 (National Center for Advancing Translational Sciences (NCATS), 2011)
Several values for one entry are separate records, joined by “and”; a condition that tells them apart may be missing. Identical values can stand only once. Among all 390,000 compounds or so, about 4,000 (1%) were called active. This list was built around the results that the source calls inconclusive (neither active nor inactive); the mix of calls is not that of the screen. Calls follow the shape of the dose curve; as a rule, active = well fitted inhibition curve with a large enough effect; inconclusive = small, poorly fitted or top-dose-only effect, or another doubt; inactive = no such curve, though single readings can be large or run the other way. Potencies of inconclusive entries are doubtful fits and often do not repeat.

Chains of the proteins cited; added tags and fusions are not shown. Lines headed by an entry give the natural chain unless they say otherwise; changes in a name come on top.
UniProt Q9UNA4: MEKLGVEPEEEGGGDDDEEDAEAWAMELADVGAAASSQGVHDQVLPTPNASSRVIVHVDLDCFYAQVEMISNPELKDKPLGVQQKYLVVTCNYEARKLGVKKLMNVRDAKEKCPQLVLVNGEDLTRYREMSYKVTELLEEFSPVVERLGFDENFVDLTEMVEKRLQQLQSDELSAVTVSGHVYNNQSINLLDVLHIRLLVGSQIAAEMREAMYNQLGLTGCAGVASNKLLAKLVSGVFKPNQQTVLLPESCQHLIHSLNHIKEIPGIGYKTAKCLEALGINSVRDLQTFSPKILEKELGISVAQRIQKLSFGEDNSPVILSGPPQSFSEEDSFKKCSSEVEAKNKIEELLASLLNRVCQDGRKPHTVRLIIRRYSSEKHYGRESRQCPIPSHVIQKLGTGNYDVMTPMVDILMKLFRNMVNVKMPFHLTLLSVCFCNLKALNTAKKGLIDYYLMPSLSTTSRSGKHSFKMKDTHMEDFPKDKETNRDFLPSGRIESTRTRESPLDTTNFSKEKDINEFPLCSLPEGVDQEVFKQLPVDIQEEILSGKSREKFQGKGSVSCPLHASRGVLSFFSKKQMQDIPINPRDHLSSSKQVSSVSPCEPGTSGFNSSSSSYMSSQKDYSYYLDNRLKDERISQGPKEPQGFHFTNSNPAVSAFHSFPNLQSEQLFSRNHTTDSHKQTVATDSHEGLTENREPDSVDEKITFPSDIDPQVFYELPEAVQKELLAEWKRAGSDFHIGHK

What follows are molecules tested against DNA polymerase iota (Homo sapiens) (UniProt Q9UNA4) (assay: qHTS for Inhibitors of Polymerase Iota). Details: Pol iota fluorescent replication assay, 10 min; series mostly up to 115 µM.
How it was run: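 Pol iota at 10 nM preincubated 15 min with compounds at room temperature; reaction started with fluorescent substrate, 50 nM final. Fluorescence read kinetically at 0 and 10 min; buffer-only wells as negative control.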
Potency is read from the fitted curve at half-maximal effect.

| Compound | Potency |
| --- | --- |
| CCc1nc2c(c(=O)[nH]1)C1(CCCC1)Cc1ccccc1-2 | inconclusive: 79.4 µM [inhibitor, partial curve] |
| CCCC(=O)NC(Nc1cccc(C(F)(F)F)c1)C(Cl)(Cl)Cl (configuration not stated) | inconclusive: 89.1 µM [inhibitor, single point] |
| CCOC(=O)c1ccc(N2C(=O)c3n[nH]c(C)c3C2c2cccc(Br)c2)cc1 (configuration not stated) | inconclusive: 14.1 µM [inhibitor, partial curve, poor fit] |
| O=C(NCc1ccc(F)cc1)C1CCCN1C(=O)NCc1ccccc1 (configuration not stated) | inconclusive: 39.8 µM [inhibitor, single point] |
| O=C(c1ccc(N2CCN(C(=O)c3ccccc3)CC2)cc1)c1cccc(F)c1 | inconclusive: 25.1 µM [inhibitor, full curve, poor fit] |
| O=C(CNS(=O)(=O)c1cccs1)N1CCc2ccccc2C1 | inconclusive: 89.1 µM [inhibitor, partial curve, poor fit] |
| O=c1[nH]c2cnn(-c3ccccc3)c2c(=O)n1O | inactive |
| O=C(CN1CCN(S(=O)(=O)c2cccs2)CC1)N1CCCCC1 | inactive |
| O=C(CSc1ncnc2nc[nH]c12)c1ccc(Cl)cc1 | inconclusive: 63.1 µM [inhibitor, partial curve, poor fit] |
| O=C(C1CC(=O)N(C2CCCC2)C1)N1CCC(Cc2ccccc2)CC1 (configuration not stated) | inconclusive: 89.1 µM [inhibitor, single point] |
| O=C(COc1ccccc1)NCCc1csc(-c2ccc(Cl)cc2)n1 | inactive |
| CC(=O)Nc1cccc(C(=O)/C=C/c2ccc(C)cc2)c1 | inconclusive: 56.2 µM [inhibitor, full curve] |
| Cc1ccc(C)c(Nc2ncnc3nc[nH]c23)c1 | inconclusive: 0.631 µM [inhibitor, full curve, poor fit] |
| CSc1ncc(Cl)c(C(=O)Nc2c(C)cccc2C)n1 | inconclusive: 63.1 µM [inhibitor, partial curve, poor fit] |
| CC(=O)N1c2ccccc2C(C)(c2ccccc2)CC1(C)C (configuration not stated) | inconclusive: 28.2 µM [inhibitor, single point] |
| Cc1cc(NC(=O)CCCC(=O)O)nc(C)n1 | inconclusive: 39.8 µM [inhibitor, partial curve, poor fit] |
| Cc1cccc(N2C(N)=C(C#N)C(C#N)(C#N)C2c2ccccc2)c1 (configuration not stated) | inconclusive: 39.8 µM [inhibitor, full curve, poor fit] |
| CS(=O)(=O)Nc1ccc(S(=O)(=O)N2CCCCCC2)cc1 | inconclusive: 89.1 µM [inhibitor, single point] |
| O=C(O)c1cccc2cccc(-c3c4ccc(=O)c(O)c-4oc4c(O)c(O)ccc34)c12 | active: 0.708 µM |
| O=C(CCS(=O)(=O)c1cccc2nonc12)Nc1c(F)cccc1F | inconclusive: 89.1 µM [inhibitor, partial curve, poor fit] |
| COc1ccc(-c2coc3cc(O)ccc3c2=O)cc1O | inconclusive: 50.1 µM [inhibitor, partial curve, poor fit] |

| Compound | Potency |
| --- | --- |
| O=C(Nc1ccccc1)C1CC(=O)n2c(nc3ccccc32)N1 (configuration not stated) | inconclusive: 70.8 µM [inhibitor, partial curve] |
| COc1ccc(CCn2c(=O)c3cccnc3n(CC(=O)Nc3ccc(C)c(F)c3)c2=O)cc1OC | inactive |
| COC(=O)c1cc2ccsc2n1CC(=O)Nc1cc(Cl)ccc1OC | inconclusive: 56.2 µM [inhibitor, partial curve, poor fit] |
| CCOCCCn1c(SCC(=O)Nc2ccc(OC)cc2)nc2ccccc2c1=O | inactive |
| Cc1cccc(N(CC(O)Cn2c3ccccc3c3ccccc32)S(=O)(=O)c2ccc(F)cc2)c1 (configuration not stated) | inconclusive: 70.8 µM [inhibitor, partial curve] |
| CN(CC(=O)Nc1sccc1C#N)C1CCCCC1 | inconclusive: 15.8 µM [inhibitor, single point] |
| O=C(CN1C(=O)NC2(CCCC2)C1=O)Nc1ccc(F)c([N+](=O)[O-])c1 | inconclusive: 79.4 µM [inhibitor, partial curve, poor fit] |
| C/C=C(/C)C(=O)OC1c2c(ccc3ccc(=O)oc23)OC(C)(C)C1OC(=O)/C(C)=C\C (configuration not stated) | inconclusive: 10 µM [inhibitor, partial curve, poor fit] |
| Cc1nn2c(=S)[nH]nc2[nH]c1=O | inactive |
| O=C1CC(c2ccco2)CC(O)=C1C=NCC1NCCc2ccccc21 (configuration not stated) | inconclusive: 25.1 µM [inhibitor, full curve] |
| Cc1ccccc1NC(=O)c1c(C)[nH]c(=S)c(C#N)c1-c1ccc(Cl)cc1 | inconclusive: 17.8 µM [inhibitor, full curve, poor fit] |
| Cc1ccc(C(=O)Oc2coc(CSc3nnc(NC(=O)c4cccs4)s3)cc2=O)cc1 | inconclusive: 39.8 µM [inhibitor, partial curve, poor fit] |
| Cc1ccc2onc(CC(=O)N3CCN(c4ccc(F)cc4)CC3)c2c1 | inactive |
| Cn1c(=O)c2c(nc(CN3CCN(C(=O)c4ccco4)CC3)n2Cc2ccccc2F)n(C)c1=O | inconclusive: 0.794 µM [inhibitor, full curve, poor fit] |
| O=C(Nc1cccc(Cl)c1)c1nc[nH]c1C(=O)NCCN(CCNC(=O)c1[nH]cnc1C(=O)Nc1cccc(Cl)c1)CCNC(=O)c1[nH]cnc1C(=O)Nc1cccc(Cl)c1 | inconclusive: 100 µM [inhibitor, single point] |
| O=C(CN1CCN(c2ccccn2)CC1)N(c1ccccc1)c1ccc2ccccc2c1 | inconclusive: 35.5 µM [inhibitor, single point] |
| COc1ccccc1N=Cc1nc(-c2ccccc2)oc1OC(C)=O | inconclusive: 39.8 µM [inhibitor, single point] |
| C=CCN(C(=O)CCc1ccccc1OC)c1nc(-c2ccc(S(C)(=O)=O)cc2)cs1 | inconclusive: 70.8 µM [inhibitor, partial curve, poor fit] |
| COc1ccc(S(=O)(=O)Nc2cccc(-c3ccc(N4CCCCC4)nn3)c2)cc1F | inactive |
| Cc1ccc(Cl)cc1-n1c(SCC(=O)NCc2ccccc2)nc2n[nH]c(C)c2c1=N | inconclusive: 100 µM [inhibitor, single point] |
| Cc1nn(-c2ccccc2)c2sc(C(=O)c3c(N)n(C)c(=O)n(C)c3=O)cc12 | inconclusive: 15.8 µM [inhibitor, partial curve, poor fit] |

| Compound | Potency |
| --- | --- |
| COc1ccc2c3c(cccc13)C(=O)CC2 | inactive |
| CCCOc1ccc(/C=C2/C(=O)ON=C2C)cc1Cl | inconclusive: 2.24 µM [inhibitor, full curve, poor fit] |
| O=C(CN(c1ccc2c(c1)OCCO2)S(=O)(=O)c1ccccc1)NCc1ccco1 | inconclusive: 11.2 µM [inhibitor, single point] |
| COc1ccc(C2Nc3ccccc3C(=O)N2Cc2ccco2)cc1COc1ccc(NC(C)=O)cc1 (configuration not stated) | inconclusive: 79.4 µM [inhibitor, single point] and inconclusive: 10 µM [inhibitor, partial curve, poor fit] |
| O=C(COC(=O)c1cc(S(=O)(=O)N2CCOCC2)ccc1O)NCC1CCCO1 (configuration not stated) | inconclusive: 50.1 µM [inhibitor, partial curve, poor fit] |
| Cc1cnc(NC(=O)CSc2ncc(-c3ccccc3)n2Cc2ccco2)s1 | inconclusive: 28.2 µM [inhibitor, single point] |
| COc1ccccc1C(=O)Nc1ccc(-c2cc(C(F)(F)F)nn2-c2ccccc2)cc1 | inactive |
| O=C(c1ccco1)c1coc2c1cc(O)c1ccccc12 | inactive |
| CCCCN(C(=O)Cc1cccs1)c1nnc(-c2cccnc2)s1 | inconclusive: 39.8 µM [inhibitor, single point] |
| Cn1c(O)c(/C=N/NC(=O)c2cc3ccccc3cc2O)c2ccccc21 | inconclusive: 79.4 µM [inhibitor, partial curve] |
| Cc1cc(C)c2oc(-c3ccc(C)c(NC(=S)NC(=O)/C=C/c4ccco4)c3)nc2c1 | inactive |
| Cc1nn(C(C)C(=O)NCc2ccco2)c(=O)c2nn(-c3ccccc3)c(C)c12 (configuration not stated) | inconclusive: 63.1 µM [inhibitor, single point] |
| COc1ccc(-c2sc3ccc(OC)cc3c2C#Cc2cncn2C)cc1 | inconclusive: 89.1 µM [inhibitor, single point] |
| CCOC(=O)C1=C(SCC)c2cc3c(n2C1=O)CCCC3 | inconclusive: 39.8 µM [inhibitor, single point] |
| CCOC(=O)NC(=O)C(/C=N/c1sccc1C(=O)OC)=C(\C)O | inactive |
| CCN(CC)CCNC(=O)c1cc2c(-c3cccc(OC)c3)nn(C)c2s1 | inactive and inconclusive: 31.6 µM [inhibitor, full curve, poor fit] |
| COc1ccccc1CC(=O)Nc1ccc2c(c1)OC1(CCCC1)O2 | inactive |
| CCN1CCN(Cc2ccc(NC(=O)c3ccc(C)c(NC(=O)c4ccc5n[nH]nc5c4)c3)cc2C(F)(F)F)CC1 | inconclusive: 11.2 µM [inhibitor, partial curve, poor fit] |
| CCOc1cc(C(=O)Nc2ccc(C)cc2O)ccc1OCC(=O)N1CCOCC1 | inconclusive: 35.5 µM [inhibitor, single point] |
| Cc1ccc(NC(=O)Cn2c(=O)n(CCC(C)C)c(=O)c3cccnc32)cc1C | inconclusive: 89.1 µM [inhibitor, single point] |
